Data reported in PMC4234509.

Target: T1, GST-EvpC (Edwardsiella tarda) (UniProt Q6EE19)
T1 sequence: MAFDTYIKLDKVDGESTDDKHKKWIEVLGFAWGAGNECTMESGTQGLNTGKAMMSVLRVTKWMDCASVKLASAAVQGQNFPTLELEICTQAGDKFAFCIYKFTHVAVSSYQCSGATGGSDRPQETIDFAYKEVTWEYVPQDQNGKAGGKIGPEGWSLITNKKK
Assay: pull-down; GST-EvpC (100 µg) on glutathione-sepharose 4B beads, EvpP or truncation mutant (200 µg) added, 1x PBS, 4°C, at least 2 h, SDS-PAGE; both purified

## EvpP(1-168), C-terminal truncation mutant of EvpP (Edwardsiella tarda PPD130/91) (domain or fragment)
  binding: binds

These are yes or no findings as the source states them, for the method shown. A result given as binding can be weak or reduced; the word gives no strength. Sequences can lack the tags named with a protein.
